{
  "source": "PubChem BioAssay AID504648",
  "about": "(National Center for Advancing Translational Sciences (NCATS), 2011)",
  "note": "Where “and” joins values, the source holds several entries; their conditions need not be identical. Equal values may be shown once. Hit rate of the full screen: of about 390,000 compounds, about 610 (0.16%) were called active. The inconclusive results got no clear call from the source; some entries with a clear call stand among them for comparison. The call rests on the fitted dose curve; in most records, active means well fitted inhibition curve with a large enough effect; inconclusive means small, poorly fitted or top-dose-only effect, or effect the other way, or another doubt; inactive means no such curve, though single readings can be large or run the other way. Potencies of inconclusive entries are doubtful fits and often do not repeat. Potency means the concentration at half of the fitted maximal effect.",
  "data": [
    {"assay": "Nrf2 qHTS screen for inhibitors: counterscreen for cytotoxicity", "details": "A549 ARE-Fluc cells, CellTiter-Fluor viability, 18-24 h; series mostly up to 46 µM", "outline": "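A549 ARE-Fluc cells in 5% FBS OPTI-MEM, 5000 cells/well, rested 2 h then exposed to compounds in concentration-response for 18-24 h at 37 °C. Viability by CellTiter-Fluor fluorescence (Ex 405/Em 525) after 30 min; luciferase luminescence (BugLite, 15 min, RT) read afterwards.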", "values": [
      {"smiles": "O=C(Cn1c(-c2cscn2)nc2ccccc21)Nc1ccc2ccccc2c1", "Potency": "inconclusive: 16.4 µM [falling, partial curve, poor fit]"},
      {"smiles": "CN(CC(=O)Nc1ccccc1Br)C(=O)c1ccc(-c2ccc(Cl)cc2)o1", "Potency": "inconclusive: 20.6 µM [falling, partial curve, poor fit]"},
      {"smiles": "Cc1cc(C)cc(-n2c(SCC(=O)N3CCc4ccccc43)nc3c([nH]c4ccccc43)c2=O)c1", "Potency": "inactive"},
      {"smiles": "Cc1cc(N2CCN(c3ccccc3Cl)CC2)n2cc(-c3ccccc3)nc2n1", "Potency": "inconclusive: 29.1 µM [falling, single point]"},
      {"smiles": "CCOc1cc(CNc2ccc(N(C)C)cc2)cc(Br)c1OCC(=O)NC(C)(C)C", "Potency": "inconclusive: 23.1 µM [falling, single point]"},
      {"smiles": "CCOc1ccc(/C=C/c2c([N+](=O)[O-])c(=O)n(C)c(=O)n2C)cc1", "Potency": "inconclusive: 10.3 µM [falling, partial curve, poor fit]"},
      {"smiles": "O=C(Nc1cccc(Cl)c1)Nc1ccccc1C(=O)O", "Potency": "inconclusive: 14.6 µM [falling, partial curve, poor fit]"},
      {"smiles": "COc1ccc(COc2cc(-c3cccc(OC)c3)nc3ccc(NC(=O)c4cccnc4)cc23)cc1", "Potency": "inactive"},
      {"smiles": "COc1cccc(CNC(=O)CSc2ccc(-c3sc(-c4ccccc4)nc3C)nn2)c1", "Potency": "inactive"},
      {"smiles": "Oc1c(Br)cc(Br)cc1/C=N/Nc1ccc(Cl)nn1", "Potency": "inactive"},
      {"smiles": "CSc1ccc(CN(C)C(=O)c2ccc(S(=O)(=O)Nc3ccccc3)cc2)cc1", "Potency": "inconclusive: 29.1 µM [falling, single point]"},
      {"smiles": "O=C1CN(C(=O)c2cc(Br)c(Br)s2)c2ccccc2N1", "Potency": "inconclusive: 20.6 µM [falling, partial curve, poor fit]"},
      {"smiles": "O=C(Nc1ccc2[nH]c(=S)sc2c1)c1ccccc1", "Potency": "inactive"},
      {"smiles": "Cn1nc([N+](=O)[O-])c(C(C#N)c2nc3ccccc3n2C)c(Cl)c1=O", "note": "(stereo not drawn)", "Potency": "inconclusive: 16.4 µM [falling, partial curve, poor fit]"},
      {"smiles": "COc1ccc(CCNC(=O)c2nn(-c3ccc(C)cc3)c(=O)c3c2c2ccccc2n3C)cc1OC", "Potency": "inactive"},
      {"smiles": "Cc1cc(-c2ccccc2)n(-c2ccc(C(=O)N3CCN(c4ncccn4)CC3)cc2)n1", "Potency": "inactive"},
      {"smiles": "Cn1nccc1C(=O)N1CCN(S(=O)(=O)c2ccc(Br)s2)CC1", "Potency": "inconclusive: 3.66 µM [activator, partial curve, poor fit]"},
      {"smiles": "CC1(c2nnc(Cc3ccccc3)o2)CC(c2ccc(C#N)cc2)=NO1", "note": "(stereo not drawn)", "Potency": "inconclusive: 3.66 µM [activator, partial curve, poor fit]"},
      {"smiles": "CC(C)(C)NC(=O)c1cccc(NC(=O)c2ccc3c(c2)C(=O)N(C(C)(C)C)C3=O)c1", "Potency": "inconclusive: 18.4 µM [falling, partial curve, poor fit]"},
      {"smiles": "Cc1noc(NS(=O)(=O)c2ccc(N/C=C/C(=O)c3ccccc3)cc2)c1C", "Potency": "inconclusive: 16.4 µM [falling, partial curve, poor fit]"},
      {"smiles": "CCOc1ncccc1C(=O)NCc1cccc(OC)c1", "Potency": "inactive"},
      {"smiles": "COC(=O)c1ccc(NC(=O)CC2C(=O)N(c3ccc(Cl)cc3)C(=O)N2Cc2cccs2)cc1", "note": "(stereo not drawn)", "Potency": "inactive"},
      {"smiles": "COc1ccc(NC(=O)CSc2ncc(-c3ccc(Cl)cc3)[nH]2)cc1OC", "Potency": "inconclusive: 0.164 µM [activator, full curve, poor fit]"},
      {"smiles": "C=CS(=O)(=O)c1sc(Cl)c(N2CCOCC2)c1[N+](=O)[O-]", "Potency": "inconclusive: 29.1 µM [falling, single point]"},
      {"smiles": "COc1ccc(CNCCSc2nnnn2-c2ccccc2)cc1", "Potency": "inconclusive: 6.51 µM [activator, partial curve, poor fit]"},
      {"smiles": "Cc1cc(C(=O)N/N=C/c2ccc([N+](=O)[O-])s2)c2ccccc2n1", "Potency": "inconclusive: 29.1 µM [falling, single point]"},
      {"smiles": "COc1ccccc1Nc1c2c(nc3ccc(NC(=O)/C=C/c4cccc(OC)c4OC)cc13)CCCC2", "Potency": "inconclusive: 20.6 µM [falling, single point]"},
      {"smiles": "CC1S/C(=N/N=C/c2cccc([N+](=O)[O-])c2)NC1=O", "note": "(stereo not drawn)", "Potency": "inconclusive: 18.4 µM [activator, partial curve, poor fit]"},
      {"smiles": "COc1ccccc1Nc1nc(-c2cccnc2)cs1", "Potency": "inactive"},
      {"smiles": "CSc1nc(N2CCN(C)CC2)c2c(c1C#N)CC(C)(C)OC2", "Potency": "inactive"},
      {"smiles": "Nc1c(SCCC(=O)O)ccc2c1C(=O)c1ccccc1C2=O", "Potency": "inconclusive: 18.4 µM [falling, partial curve]"},
      {"smiles": "CC(C)(C)c1ccc(-c2cc(-c3ccccc3O)[nH]n2)cc1", "Potency": "inconclusive: 23.1 µM [falling, single point]"},
      {"smiles": "O=C(CN1CCN(c2ccccn2)CC1)Nc1ccc([N+](=O)[O-])cc1C(=O)Nc1ccccc1F", "Potency": "inconclusive: 16.4 µM [falling, single point]"},
      {"smiles": "CSc1ccccc1OCc1cc(C(=O)NC(C)c2cnn(C)c2)no1", "note": "(stereo not drawn)", "Potency": "inactive"},
      {"smiles": "COc1cccc(CNC(=O)c2c(C)nn(-c3cccc(C)c3)c2-n2cccc2)c1", "Potency": "inactive"},
      {"smiles": "CC1CC(C)CN(CCCNC(=O)c2csc3c2CCCC3)C1", "note": "(stereo not drawn)", "Potency": "inconclusive: 29.1 µM [falling, single point]"},
      {"smiles": "CCn1cc(CNCc2ccc(OCC(O)CN(C)Cc3ccccc3)cc2)cn1", "note": "(stereo not drawn)", "Potency": "inconclusive: 4.11 µM [falling, partial curve, poor fit]"},
      {"smiles": "Cc1cc(C)nc(SCCCNCc2ccc(Br)cc2)n1", "Potency": "inactive"},
      {"smiles": "Cc1ccc(NC(=O)c2ccc(N/N=C/c3cccc(O)c3)c([N+](=O)[O-])c2)cc1", "Potency": "inconclusive: 29.1 µM [falling, single point]"},
      {"smiles": "COc1cccc(NC(=O)Cn2cc(C=O)c3ccccc32)c1", "Potency": "inactive"},
      {"smiles": "COC(=O)CCC(=O)Nc1c(C)n(C)n(-c2ccccc2)c1=O", "Potency": "inactive"},
      {"smiles": "Cc1ccc2cc(CN(c3ccccc3C)S(=O)(=O)c3ccccc3)c(=O)[nH]c2c1", "Potency": "inactive"},
      {"smiles": "CCOC(=O)CCC(=O)Nc1ncnc2c1C(c1ccccc1)c1c(ccc3ccccc13)O2", "note": "(stereo not drawn)", "Potency": "inconclusive: 6.51 µM [falling, partial curve, poor fit] and inconclusive: 32.6 µM [falling, partial curve, poor fit]"},
      {"smiles": "CCC(C)(C)n1nnnc1C(C(C)C)N(Cc1cccnc1)Cc1ccco1", "note": "(stereo not drawn)", "Potency": "inactive"},
      {"smiles": "Cn1cc([N+](=O)[O-])c(C(=O)Nc2nc(-c3ccc(Cl)cc3)cs2)n1", "Potency": "inconclusive: 25.9 µM [falling, single point]"},
      {"smiles": "CCCOc1ccc(N2C(=O)CC(N(Cc3ccc(OC)cc3)C(=S)Nc3ccccc3)C2=O)cc1", "note": "(stereo not drawn)", "Potency": "inconclusive: 29.1 µM [falling, partial curve, poor fit]"},
      {"smiles": "O=C(NCc1ccc(F)cc1)C1CCN(C(=O)c2ccc(-n3ccc4ccccc43)s2)CC1", "Potency": "inconclusive: 32.6 µM [falling, partial curve, poor fit]"},
      {"smiles": "O=C1c2ccccc2C(=O)N1c1cnc2ccccc2c1", "Potency": "inactive"},
      {"smiles": "O=C/C=C/c1coc2ccc3ccccc3c2c1=O", "Potency": "inconclusive: 2.91 µM [activator, partial curve, poor fit]"},
      {"smiles": "CCOC(=O)c1c(N)sc(C(=O)Nc2ccccc2)c1C", "Potency": "inconclusive: 4.11 µM [activator, single point]"},
      {"smiles": "O=C(CCl)Nc1cn(-c2ccccc2)nc1-c1ccccc1", "Potency": "inconclusive: 18.4 µM [falling, single point]"},
      {"smiles": "COc1ccc2c(c1)c(CC(=O)Nc1ccc(C)cc1)c(C)n2C(=O)c1ccc(Cl)cc1", "Potency": "inactive"},
      {"smiles": "CC(C)Oc1ccc(/C=C/C(=O)NCC2COc3ccccc3O2)cc1", "note": "(stereo not drawn)", "Potency": "inactive"},
      {"smiles": "CCc1ccc(NC(=O)c2noc3c2CCC3)cc1", "Potency": "inconclusive: 23.1 µM [falling, single point]"},
      {"smiles": "O=C(Cc1ccc(Cl)cc1)Nc1ccc2c(c1)C(=O)NC2=O", "Potency": "inconclusive: 29.1 µM [falling, single point]"},
      {"smiles": "O=C(Nc1ncc(Br)s1)C(Cc1ccccc1)n1cccc1", "note": "(stereo not drawn)", "Potency": "inconclusive: 29.1 µM [falling, single point]"},
      {"smiles": "O=C(NC(=S)N(CCc1ccccc1)CCc1ccccc1)c1ccco1", "Potency": "inactive"},
      {"smiles": "Cc1c(C#N)c(NC(=O)CCl)n(Cc2cccs2)c1C", "Potency": "inconclusive: 29.1 µM [falling, single point]"},
      {"smiles": "O=C(COC(=O)/C=C/c1ccc([N+](=O)[O-])cc1)NCC1CCCCC1", "Potency": "inactive"},
      {"smiles": "CC(C)c1c(C#N)c(N)nc(SCC(=O)c2cc3ccccc3oc2=O)c1C#N", "Potency": "inconclusive: 16.4 µM [falling, single point]"},
      {"smiles": "COc1cc(/C=N/n2c(=S)[nH]nc(C)c2=O)cc([N+](=O)[O-])c1O", "Potency": "inconclusive: 29.1 µM [falling, partial curve, poor fit]"},
      {"smiles": "CN(C)c1ccc(/C=C2/C[N+](C)(C)C/C(=C/c3ccc(N(C)C)cc3)C2=O)cc1", "Potency": "active: 14.6 µM"},
      {"smiles": "Cc1cc(Nc2ccccc2Cl)nc(-c2ccccc2O)n1", "Potency": "inactive"},
      {"smiles": "Cc1nc2ccccc2c(=O)n1/N=C/c1cn(-c2ccccc2)nc1-c1cccs1", "Potency": "inconclusive: 11.6 µM [falling, partial curve, poor fit]"},
      {"smiles": "c1ccc(Nc2nc(-c3ccncc3)nc3ccccc23)cc1", "Potency": "inconclusive: 6.51 µM [activator, partial curve, poor fit]"},
      {"smiles": "C=CCSc1nc2ccccc2n1C(=O)/C=C/c1cc(OC)c(OC)c(OC)c1", "Potency": "inconclusive: 16.4 µM [falling, single point]"},
      {"smiles": "CCn1c2ccccc2c2cc(C#N)c(N)nc21", "Potency": "inactive"},
      {"smiles": "CCNS(=O)(=O)c1ccc(NC(=O)CSc2nc(-c3ccco3)cc(C(F)(F)F)n2)cc1", "Potency": "inconclusive: 25.9 µM [falling, partial curve, poor fit]"}
    ]}
  ]
}
